Results deposited as PubChem BioAssay AID1671195 (Yale University, 2021)

- Assay: 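Regulators of LDL receptor activity judged by labelled LDL uptake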 (primary screen)
- Cells: human Huh7 hepatoma cells
- Knock-down reagent: siRNA pool against human genes, 18 nM
- Time to read-out: about 2 to 2.5 days of knockdown, then 8 h LDL uptake
- Treatment: DiI-labelled LDL at 30 µg/ml for 8 h, in lipoprotein-deficient serum medium
- Measured: 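Fluorescent LDL signal imaged in cells, scaled to the plate median, robust z-score for each replicate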
- Direction: robust z-score: higher = more LDL uptake after knockdown
- Hit rule: 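Active when two or more replicates show a robust z-score above 2 or below -2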
This is an unselected part of about 22,000 reagents tested. About 1,510 of them (6.9%) were called active. 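Active includes knockdowns raising or lowering LDL uptake; positive z-scores mean more uptake, negative mean less.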

| Target gene | robust z-score, replicate 1 | robust z-score, replicate 2 | robust z-score, replicate 3 | Call |
| --- | --- | --- | --- | --- |
| ARMC12 (GeneID 221481) | 1.06 | 0.9 | 1.12 | inactive |
| A4GALT (GeneID 53947) | 0.674 | 1.82 | 0.712 | inactive |
| SRRD (GeneID 402055) | -0.494 | 0.102 | -0.495 | inactive |
| TANK (GeneID 10010) | -0.62 | -0.602 | -0.994 | inactive |
| HOXD9 (GeneID 3235) | -0.139 | 0.258 | 0.746 | inactive |
| OGDH (GeneID 4967) | 0.382 | 0.953 | 0.576 | inactive |
| LINC02880 (GeneID 285759) | -1.57 | -1.43 | -1.45 | inactive |
| SLC38A8 (GeneID 146167) | 0.229 | 0.25 | 0.274 | inactive |
| TSKU (GeneID 25987) | 0.189 | -0.294 | -1.38 | inactive |
| BORCS8-MEF2B (GeneID 4207) | -0.0283 | 0.835 | 0.0171 | inactive |
| SULT1A1 (GeneID 6817) | -0.84 | -0.883 | -0.788 | inactive |
| OR5AU1 (GeneID 390445) | 0.344 | -0.183 | -0.2 | inactive |
| CTAGE6 (GeneID 340307) | 0.963 | 1.04 | 1.31 | inactive |
| KPRP (GeneID 448834) | 0.543 | -0.309 | 0.494 | inactive |
| RELCH (GeneID 57614) | -1.27 | -0.0774 | -0.515 | inactive |
| OTOP1 (GeneID 133060) | -1.14 | -0.552 | -0.645 | inactive |
| NCOA7 (GeneID 135112) | -2.25 | -1.09 | -1.54 | inactive |
| RUFY4 (GeneID 285180) | -0.459 | -0.388 | -0.528 | inactive |
| ATP2A1 (GeneID 487) | -1.56 | -1.42 | -1.77 | inactive |
| SORBS1 (GeneID 10580) | 0.399 | 0.195 | -0.812 | inactive |
| WWC2 (GeneID 80014) | -1.16 | -0.976 | -1.39 | inactive |
| KRT86 (GeneID 3892) | 1.18 | 0.00999 | 0.29 | inactive |
| PLSCR5 (GeneID 389158) | -0.0298 | -0.162 | -0.143 | inactive |
| PPM1J (GeneID 333926) | 0.193 | -0.0232 | 0.204 | inactive |
| CEP164 (GeneID 22897) | 2.59 | 2.11 | 1.8 | active |
| SMARCD2 (GeneID 6603) | -0.477 | 0.368 | -0.0269 | inactive |
| NOP56 (GeneID 10528) | -0.696 | -0.998 | -0.721 | inactive |
| ZNF189 (GeneID 7743) | -1.84 | -1.46 | -2.02 | inactive |
| PTPRS (GeneID 5802) | -0.0355 | -0.416 | 0.562 | inactive |
| POLR2K (GeneID 5440) | 0.0963 | -0.686 | -0.872 | inactive |
| MPC1L (GeneID 347411) | 0.129 | 0.274 | -0.262 | inactive |
| SPANXN2 (GeneID 494119) | -0.366 | -0.237 | -0.189 | inactive |
| CFAP97D1 (GeneID 284067) | -0.48 | -0.249 | -0.517 | inactive |
| IQGAP1 (GeneID 8826) | -1.1 | -0.954 | -0.727 | inactive |
| NPPC (GeneID 4880) | -0.295 | -0.786 | -1.77 | inactive |
| EP400 (GeneID 57634) | -1.64 | -1.4 | -1.68 | inactive |
| COQ8A (GeneID 56997) | -0.475 | -0.762 | -0.552 | inactive |
| ERICH5 (GeneID 203111) | 1.9 | 0.935 | 1.01 | inactive |
| CXXC1P1 (GeneID 392459) | -0.835 | 0.388 | 0.577 | inactive |
| OR51L1 (GeneID 119682) | 0.543 | 0.082 | 0.41 | inactive |
| NDC1 (GeneID 55706) | -0.485 | 0.73 | -0.728 | inactive |
| UROC1 (GeneID 131669) | -0.507 | -0.0856 | -1.27 | inactive |
| SERPINB6 (GeneID 5269) | -0.25 | -1.06 | -0.503 | inactive |
| NFKBIL1 (GeneID 4795) | 0.516 | 0.455 | 1.2 | inactive |
| LDC1P (GeneID 149086) | 2.44 | 1.88 | 1.69 | inactive |
| KCNH5 (GeneID 27133) | -0.0579 | -1.27 | 0.386 | inactive |

5 entries already listed, ordered by “robust z-score, replicate 3”, ascending:
| Target gene | robust z-score, replicate 1 | robust z-score, replicate 2 | robust z-score, replicate 3 | Call |
| --- | --- | --- | --- | --- |
| LINC02880 (GeneID 285759) | -1.57 | -1.43 | -1.45 | inactive |
| TSKU (GeneID 25987) | 0.189 | -0.294 | -1.38 | inactive |
| SLC38A8 (GeneID 146167) | 0.229 | 0.25 | 0.274 | inactive |
| OGDH (GeneID 4967) | 0.382 | 0.953 | 0.576 | inactive |
| HOXD9 (GeneID 3235) | -0.139 | 0.258 | 0.746 | inactive |
